Test results: the supplement of paper PMC11098740
This is one part of the list. Many values rest on one well or one pass, so single values are uncertain.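 Test system: a mixed pool of 41 HAP1 clones in which 61 cancer-associated proteins carry fluorescent tags inserted into introns, and each clone is identified from its image pattern. Read-outs are compared with DMSO-treated control wells. The BRD4 degrader dBET6 served as the positive control.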

By UniProt entry, the sequences of proteins in these tests, tags left out.
UniProt O14980, whole entry: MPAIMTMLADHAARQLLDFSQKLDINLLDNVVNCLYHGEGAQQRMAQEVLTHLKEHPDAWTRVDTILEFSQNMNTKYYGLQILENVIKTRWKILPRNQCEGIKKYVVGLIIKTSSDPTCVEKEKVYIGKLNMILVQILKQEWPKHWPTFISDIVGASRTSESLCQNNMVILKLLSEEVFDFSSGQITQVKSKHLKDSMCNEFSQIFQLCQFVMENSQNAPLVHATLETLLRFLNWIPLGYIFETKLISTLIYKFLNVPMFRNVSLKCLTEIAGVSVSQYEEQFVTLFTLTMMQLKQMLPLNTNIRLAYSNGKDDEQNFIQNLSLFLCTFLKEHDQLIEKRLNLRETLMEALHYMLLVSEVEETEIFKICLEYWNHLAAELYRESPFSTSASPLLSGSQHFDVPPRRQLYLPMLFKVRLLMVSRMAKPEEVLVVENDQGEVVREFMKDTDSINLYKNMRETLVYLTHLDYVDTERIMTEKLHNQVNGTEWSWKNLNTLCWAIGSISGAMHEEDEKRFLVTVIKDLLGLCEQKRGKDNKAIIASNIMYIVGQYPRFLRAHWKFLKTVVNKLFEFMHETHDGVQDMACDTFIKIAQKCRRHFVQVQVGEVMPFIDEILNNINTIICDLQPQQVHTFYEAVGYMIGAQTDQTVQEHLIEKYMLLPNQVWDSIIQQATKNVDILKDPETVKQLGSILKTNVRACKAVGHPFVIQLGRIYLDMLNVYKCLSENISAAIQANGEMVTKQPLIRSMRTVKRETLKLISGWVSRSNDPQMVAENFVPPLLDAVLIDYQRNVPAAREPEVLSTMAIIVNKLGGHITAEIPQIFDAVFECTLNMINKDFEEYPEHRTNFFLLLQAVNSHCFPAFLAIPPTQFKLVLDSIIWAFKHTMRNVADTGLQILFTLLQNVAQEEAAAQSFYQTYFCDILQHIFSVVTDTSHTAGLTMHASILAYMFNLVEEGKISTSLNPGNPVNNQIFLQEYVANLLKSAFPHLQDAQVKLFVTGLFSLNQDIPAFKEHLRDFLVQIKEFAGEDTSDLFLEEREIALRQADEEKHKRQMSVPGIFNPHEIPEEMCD

How the values were obtained:
[1] = target: XPO1 (intron 15 mScarlet tag, HAP1) (UniProt O14980); assay: XPO1 fluorescence intensity change vs DMSO (log2 fold change); higher = more XPO1 protein; settings: 6 h
[2] = target: BRD4 (intron 10 mScarlet tag, HAP1) (UniProt O60885); assay: BRD4 median nuclear fluorescence intensity change vs DMSO (log2 fold change); higher = more BRD4 protein; settings: 6 h

| Structure (SMILES) | XPO1 fluorescence intensity change (log2) [1] | BRD4 median nuclear fluorescence intensity change (log2) [2] |
| --- | --- | --- |
| O=C(Nc1nc(-c2ccccn2)cs1)c1cnn(Cc2ccccc2)c1 (10 µM) | -0.00774 | 0.118 |
| Cc1ncc(CN2CCC(c3nc4cc(Cl)ccc4o3)CC2)s1 (1 µM) | -0.0426 | 0.0728 |
| O=C(NCCc1c(F)cccc1F)c1cc2c(nc3sccn32)s1 (1 µM) | -0.184 | -0.0176 |
| Cc1ccc(Cl)cc1N1CCN(C(=O)NCc2ccc(F)cc2)CC1 (10 µM) | 0.0696 | 0.0241 |
| C#Cc1cccc(Nc2ncnc3cc(OCCOC)c(OCCOC)cc23)c1 [Erlotinib] (20 µM) | -0.0189 |  |
| Cc1nn(C)c2sc(C(=O)Nc3ccc4oc(C(F)(F)F)nc4c3)cc12 (10 µM) | -0.149 | 0.0258 |
| O=C1CSc2ccc(C(=O)N3CCN(c4cccc(C(F)(F)F)c4)CC3)cc2N1 (10 µM) | 0.0579 | 0.0432 |
| COc1cc(C(=O)Nc2nc(-c3ccccn3)cs2)cc(OC)c1OC (10 µM) | -0.17 | -0.129 |
| CCc1nc(-c2ccc(O)c(O)c2)cs1 (10 µM) | 0.0673 | 0.0311 |
| CCOc1ccc(C(=O)NCc2cnn(Cc3ccccc3)c2)cn1 (10 µM) | 0.0877 | 0.0669 |
| COc1cc(NC(C)c2nc3sc(C)c(C)c3c(=O)[nH]2)cc(OC)c1 (centres undefined) (10 µM) | -0.0581 | 0.0807 |
| CCN(Cc1ccc2c(c1)OCO2)c1ncnc2ccccc12 (10 µM) | -0.0488 | 0.0947 |
| O=C(Nc1ccc(F)cc1)c1nnc(CCl)s1 (10 µM) | -0.000826 | 0.0617 |
| Cc1nc2ccc(Cl)cc2cc1C(=O)NCCNc1ncnc2sccc12 (10 µM) | -0.0264 | 0.0407 |
| N#CC(C#N)=C1C=CC=CN1/C(=C/c1ccc(F)cc1)C(=O)c1ccccc1 (1 µM) | -0.2 | 0.165 |

Rewritten comma-delimited: entries from further up.
Structure (SMILES),XPO1 fluorescence intensity change (log2) [1],BRD4 median nuclear fluorescence intensity change (log2) [2]
Cc1nc2ccc(Cl)cc2cc1C(=O)NCCNc1ncnc2sccc12 (10 µM),-0.0264,0.0407
N#CC(C#N)=C1C=CC=CN1/C(=C/c1ccc(F)cc1)C(=O)c1ccccc1 (1 µM),-0.2,0.165
